Reference: PubChem BioAssay AID1159584 (Peter MacCallum Cancer Centre, 2016)
Test: 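Genes that CDH1-null MCF10A cells selectively depend on to survive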 (primary screen). Cells: human MCF10A breast epithelial cells, parental and CDH1-null. Knock-down reagent: siRNA against human genes. Measured: 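Cell viability by CellTiter-Glo ATP luminescence, each line scaled to the mean of mock wells across plates, then CDH1-null over parental ratio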. Direction: CDH1-null / parental viability ratio: higher = CDH1-null cells survive relatively better than parental; CDH1-null viability vs mock: higher = more viable CDH1-null cells; parental viability vs mock: higher = more viable parental cells.
Here is an unselected part of about 18,000 deposited reagents. Not stated in the record: the amount of reagent, the time to read-out.

The first 2 entries, to show the layout:
target	PubChem SID	CDH1-null / parental viability ratio	CDH1-null viability vs mock (fraction of mock)	parental viability vs mock (fraction of mock)
KLK9	SID135621105	1.06	0.84	0.79
KRT72	SID134319315	0.98	0.78	0.8

The listing, repeating the preview:
target	PubChem SID	CDH1-null / parental viability ratio	CDH1-null viability vs mock (fraction of mock)	parental viability vs mock (fraction of mock)
KLK9	SID135621105	1.06	0.84	0.79
KRT72	SID134319315	0.98	0.78	0.8
SLC7A8	SID135621420	0.95	0.88	0.93
AP3M1	SID135622576	1.03	0.8	0.78
NUCKS1	SID152150801	1.09	0.88	0.81
CASD1	SID134320898	0.98	1.25	1.27
LTA	SID134315020	1	0.82	0.82
MMRN1	SID134316665	1.23	0.96	0.78
SPECC1L	SID152156522	0.92	0.65	0.71
DGKA	SID152151940	1	0.73	0.73
DIABLO	SID134310478	0.91	0.98	1.08
CIDEA	SID152148648	0.76	0.64	0.84
RHOA	SID152150258	1.46	0.7	0.48
CHRDL1	SID135623017	1.02	1.06	1.04
TSPAN1	SID152150854	1.12	1.12	1
SUCO	SID134322109	0.85	0.55	0.65
MCF2L	SID152151019	0.84	0.47	0.56
PDE6B	SID152149304	1.18	1.03	0.87
DCT	SID134310834	1.18	1.13	0.96
INAVA	SID134324005	1.34	0.78	0.58
MGAT5	SID152153240	0.98	0.95	0.97
CDCA5	SID152152815	1.13	0.34	0.3
TBC1D13	SID134320917	1.13	0.62	0.55
PLOD3	SID152155950	1.02	0.41	0.4
ZFYVE28	SID135624439	1.15	0.62	0.54
GPR148	SID152147909	0.64	0.51	0.8
PGRMC1	SID134315137	1.02	0.98	0.96
BPIFB6	SID134313625	1.13	0.68	0.6
DGCR6	SID152154271	1.38	0.88	0.64
MRPL55	SID135623667	1.35	1.04	0.77
ZFP36L1	SID134316133	1.21	0.64	0.53
PRG4	SID152156308	1.02	0.98	0.96
PTCH1	SID135620758	1.07	0.86	0.8
VPS13B	SID135622414	1.02	0.88	0.86
SASS6	SID134322965	1.09	0.83	0.76
PMS2	SID152155622	0.88	0.72	0.82
GOLT1B	SID152155215	0.84	0.76	0.9
SPSB4	SID152153879	0.91	0.6	0.66
HIRIP3	SID134315816	1.08	0.28	0.26
KRT4	SID152147553	1.14	0.74	0.65
SLC4A11	SID135621413	0.96	0.94	0.98
CYREN	SID134314815	1.35	0.69	0.51
CYTH2	SID134316237	0.82	0.76	0.93
ST6GALNAC3	SID152149937	0.94	0.92	0.98
BHMT	SID152148801	0.92	0.96	1.04
BRD10	SID152155475	0.84	0.64	0.76
VMP1	SID152153642	1	0.66	0.66
OR6V1	SID134329777	0.86	0.69	0.8
KLHDC8B	SID134322345	0.92	0.6	0.65
POP5	SID134320439	1.15	0.99	0.86
SUMO2	SID135623147	1.24	1.19	0.96
SSRP1	SID135622195	1.22	0.83	0.68
AUP1	SID152155937	0.98	0.78	0.8
ANO9	SID135624594	1.06	0.92	0.87
EXOC1	SID152156578	0.96	0.72	0.75
CDH17	SID135622204	0.94	0.9	0.96
LCN15	SID134329378	0.83	0.35	0.42
AKAP6	SID135621586	0.97	0.95	0.98
RAB26	SID135621647	0.77	0.48	0.62
GPN3	SID134320834	1.31	0.84	0.64
LAPTM5	SID134323639	0.94	0.78	0.83
ACTR1A	SID134316371	0.79	0.94	1.19
RELA	SID135620694	0.83	0.5	0.6
ZC3H18	SID134322157	1.1	0.53	0.48
MACO1	SID152148374	1.01	0.76	0.75
PRIMA1	SID152147618	1.02	0.86	0.84
DIPK1B	SID135623119	1.19	1.01	0.85
NCKAP5L	SID152154082	1.6	0.85	0.53
